The source of these data is PubChem BioAssay AID256 (DTP/NCI, 2004).

The subject of the test is CD2F1 mice, L1210 leukemia ip, survival T/C. As to the kind of experiment: NCI In Vivo Anticancer Drug Screen. Data for tumor model L1210 Leukemia (intraperitoneal) in CD2F1 (CDF1) mice. The note with it: higher T/C = longer survival. In outline: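 Each value reflects a quotient of treated over vehicle control outcomes in mice with a transplanted tumor.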
Setting [1] is: T/C endpoint: mean survival time, dose: 200.0 mg/kg/injection, schedule: Q01DX009 (ip), vehicle: saline with Tween-80.
Where [2] appears, read: T/C endpoint: mean survival time, dose: 400.0 mg/kg/injection, schedule: Q01DX009 (ip), vehicle: saline with Tween-80.
Setting [3] is: T/C endpoint: mean survival time, dose: 25.0 mg/kg/injection, schedule: Q01DX009 (ip), vehicle: saline with Tween-80.
[4] abbreviates: T/C endpoint: mean survival time, dose: 100.0 mg/kg/injection, schedule: Q04DX003 (ip), vehicle: Klucel (hydroxypropylcellulose) (HPC).
Setting [5] is: T/C endpoint: mean survival time, dose: 200.0 mg/kg/injection, schedule: Q04DX003 (ip), vehicle: Klucel (hydroxypropylcellulose) (HPC).
[6] abbreviates: T/C endpoint: mean survival time, dose: 400.0 mg/kg/injection, schedule: Q04DX003 (ip), vehicle: saline with Tween-80.
The mark [7] stands for this setting: T/C endpoint: mean survival time, dose: 100.0 mg/kg/injection, schedule: Q01DX009 (ip), vehicle: saline with Tween-80.
The mark [8] stands for this setting: T/C endpoint: mean survival time, dose: 400.0 mg/kg/injection, schedule: Q01DX001 (ip), vehicle: saline with Tween-80.
[9] abbreviates: T/C endpoint: mean survival time, dose: 50.0 mg/kg/injection, schedule: Q01DX001 (ip), vehicle: saline with Tween-80.
The mark [10] stands for this setting: T/C endpoint: mean survival time, dose: 100.0 mg/kg/injection, schedule: Q01DX001 (ip), vehicle: saline with Tween-80.
Where [11] appears, read: T/C endpoint: mean survival time, dose: 75.0 mg/kg/injection, schedule: Q01DX001 (ip), vehicle: saline.
Where [12] appears, read: T/C endpoint: mean survival time, dose: 150.0 mg/kg/injection, schedule: Q01DX001 (ip), vehicle: saline.
Setting [13] is: T/C endpoint: mean survival time, dose: 300.0 mg/kg/injection, schedule: Q01DX001 (ip), vehicle: saline.
The mark [14] stands for this setting: T/C endpoint: median survival time, dose: 160.0 mg/kg/injection, schedule: Q01DX009 (ip), vehicle: Klucel (hydroxypropylcellulose) (HPC).

Each structure is given as a SMILES string. The list does not hold the whole screen: it is rich in T/C values a quarter to a half above the control, in often repeated tests (any T/C) and in doses without a T/C. Other doses and runs of a compound stand elsewhere. T/C: endpoint of the treated group in % of that of the vehicle group. Some entries give survivors of the animals treated and no T/C: the source holds a T/C of zero for them, seemingly a mark for toxic or unscored doses. Some doses without a T/C left all or most animals alive at the check, yet need not have been tolerated: survival well below the control is almost never listed, so the zero probably covers shortened survival too. Counts of survivors are from the toxicity check (mostly the fifth day) where no day follows; animals may have died later. Schedules are NCI's codes, taken here to give the interval after Q, in days (D) or hours (H), and the number of doses after X. Where survival is the endpoint, the PubChem record calls one and a half times the control and up active, and a quarter to a half above the control has no call in these data; cut-offs in other NCI protocols can differ. Some entries hold several experiments; their values stand side by side, smallest first. Some T/C values are followed by the survivors on the day toxicity was checked, most often the fifth; without a count, all were alive then.

For `Cc1ccccc1N1CCN(c2ccccc2C)C1=C1N(c2ccccc2C)CCN1c1ccccc1C`, the survivor count by setting is: (T/C endpoint: mean survival time, dose: 0.39 mg/kg/injection, schedule: Q01DX009 (ip), vehicle: DMSO) 2 of 3; (T/C endpoint: mean survival time, dose: 0.78 mg/kg/injection, schedule: Q01DX009 (ip), vehicle: DMSO) 1 of 2; (T/C endpoint: mean survival time, dose: 1.56 mg/kg/injection, schedule: Q01DX009 (ip), vehicle: DMSO) 2 of 3; (T/C endpoint: mean survival time, dose: 3.12 mg/kg/injection, schedule: Q01DX009 (ip), vehicle: DMSO) 0 of 3; (T/C endpoint: mean survival time, dose: 6.25 mg/kg/injection, schedule: Q01DX009 (ip), vehicle: DMSO) 0 of 3; (T/C endpoint: mean survival time, dose: 12.5 mg/kg/injection, schedule: Q01DX009 (ip), vehicle: DMSO) 0 of 3. In addition, the survivor count runs as follows: (T/C endpoint: mean survival time, dose: 25.0 mg/kg/injection, schedule: Q01DX009 (ip), vehicle: DMSO) 0 of 3; (T/C endpoint: mean survival time, dose: 50.0 mg/kg/injection, schedule: Q01DX009 (ip), vehicle: DMSO) 0 of 3.
`COc1cc(CC(=O)NO)cc(OC)c1OC`: the survivor count (T/C endpoint: mean survival time, dose: 400.0 mg/kg/injection, schedule: Q04DX002 (ip), vehicle: saline with Tween-80) is 3 of 3.
On to `CCOC(=O)c1ccc(NC(=O)Nc2nccs2)cc1`, for which, under setting [1], the T/C is 125 % of control. Under setting [2], the survivor count is listed as 2 of 6.
Take `CN(Cc1cnc2nc(N)nc(N)c2n1)c1ccc(C(=O)NC(CCC(=O)OC(C)(C)C)C(=O)OC(C)(C)C)cc1` (configuration not stated): the T/C (T/C endpoint: mean survival time, dose: 6.25 mg/kg/injection, schedule: Q01DX009 (ip), vehicle: saline with Tween-80) is 134 % of control; the T/C (T/C endpoint: mean survival time, dose: 9.0 mg/kg/injection, schedule: Q01DX009 (ip), vehicle: saline with Tween-80) was 126 % of control; the T/C (T/C endpoint: mean survival time, dose: 12.5 mg/kg/injection, schedule: Q01DX009 (ip), vehicle: saline with Tween-80) was 149 % of control; the T/C (T/C endpoint: mean survival time, dose: 18.0 mg/kg/injection, schedule: Q01DX009 (ip), vehicle: saline with Tween-80) was 143 % of control; the T/C under setting [3] was 146 % of control; the T/C (T/C endpoint: mean survival time, dose: 25.0 mg/kg/injection, schedule: Q04DX003 (ip), vehicle: Klucel (hydroxypropylcellulose) (HPC)) is 126 % of control. In addition, the T/C (T/C endpoint: mean survival time, dose: 50.0 mg/kg/injection, schedule: Q04DX003 (ip), vehicle: Klucel (hydroxypropylcellulose) (HPC)) is 131 % of control and the T/C under setting [4] was 131 % of control [4 of 6 alive]. The survivor count under setting [5] is given as 4 of 6.
For the molecule `O/N=C\c1ccc(/C=N/O)cc1`, the survivor count under setting [6] was 1 of 6.
Consider `Cc1cc(C)c(NC(=O)CC#N)c(C)c1`, for which the survivor count under setting [7] was 3 of 3, the survivor count under setting [1] is 3 of 3 and the survivor count under setting [2] is recorded as 3 of 3.
As for `Nc1ncnc2c1nc(-c1ccccc1)n2C1OC(CO)C(O)C1O` (configuration not stated), where the note is “T/C endpoint: median survival time, dose: 400.0 mg/kg/injection, schedule: Q01DX005 (ip), vehicle: distilled water + Tween-80”, the survivor count is given as 3 of 6.
As for `CCN(CCP(c1ccccc1)c1ccccc1)CCP(c1ccccc1)c1ccccc1`, under “T/C endpoint: mean survival time, dose: 75.0 mg/kg/injection, schedule: Q01DX001 (ip), vehicle: other”, the T/C is 130 % of control.
Consider `CN(C)C(=O)Nc1nc2ccccc2s1`, for which, under “T/C endpoint: mean survival time, dose: 200.0 mg/kg/injection, schedule: Q04DX002 (ip), vehicle: saline with Tween-80”, the survivor count is on record as 3 of 3.
As for `CC[N+]1(C2CCC3CCC2C3O)CCOCC1` (configuration not stated), the survivor count is, setting by setting: (T/C endpoint: mean survival time, dose: 200.0 mg/kg/injection, schedule: Q01DX001 (ip), vehicle: saline with Tween-80) 3 of 6; under setting [8], 1 of 6.
As for `N#CCCP(CCC#N)CCCCP(CCC#N)CCC#N`, the survivor count is 3 of 6 under setting [9] and 1 of 6 under setting [10].
On to `O=[As](O)(CC(O)c1ccccc1)c1ccccc1` (configuration not stated), for which the survivor count is on record as 3 of 6 (T/C endpoint: mean survival time, dose: 25.0 mg/kg/injection, schedule: Q01DX001 (ip), vehicle: saline with Tween-80); 0 of 6 under setting [9]; 0 of 6 under setting [10].
In the case of `O=C(Sc1ccc([N+](=O)[O-])cc1)C(=O)Sc1ccc([N+](=O)[O-])cc1`, under setting [3], the survivor count is on record as 3 of 3.
As for `O=[N+]([O-])/C(=C/c1ccccc1)c1ccccc1`, the survivor count is 5 of 6 under setting [4]; 2 of 6 under setting [5]; 0 of 6 (T/C endpoint: mean survival time, dose: 400.0 mg/kg/injection, schedule: Q04DX003 (ip), vehicle: Klucel (hydroxypropylcellulose) (HPC)).
On to `Cc1cc(=O)c2c(=O)[nH][nH]c2[nH]1`, for which the survivor count under setting [2] is reported as 3 of 6.
Take `COc1ccc(N=NN(C)C(=O)c2ccccc2)cc1`: the T/C (T/C endpoint: mean survival time, dose: 200.0 mg/kg/injection, schedule: Q01DX009 (ip), vehicle: Klucel (hydroxypropylcellulose) (HPC)) is 136 % of control.
Consider `CCCCCCCCCCCCCCOS(=O)(=O)O`, for which the survivor count (T/C endpoint: mean survival time, dose: 150.0 mg/kg/injection, schedule: Q01DX009 (ip), vehicle: saline) was 0 of 6.
Regarding `CC1CC(C)(C)N=C(C(C)CC2CCCCC2)O1` (configuration not stated), the survivor count under setting [8] is recorded as 1 of 6.
For the molecule `CC1NCCCNCCCNC(C)c2cccc1n2` (configuration not stated), the survivor count is 0 of 3 (T/C endpoint: mean survival time, dose: 100.0 mg/kg/injection, schedule: Q04DX002 (ip), vehicle: saline) and 0 of 3 (T/C endpoint: mean survival time, dose: 200.0 mg/kg/injection, schedule: Q04DX002 (ip), vehicle: saline).
With `CCOCCc1ccncc1`, the survivor count (T/C endpoint: mean survival time, dose: 400.0 mg/kg/injection, schedule: Q04DX003 (ip), vehicle: saline) is given as 0 of 6.
As for `CN1CCC23C(=O)CC4C(=CCOC5CC(=O)N(c6ccccc62)C3C54)C1` (configuration not stated), the survivor count by setting is: under setting [11], 0 of 6; under setting [12], 0 of 6; under setting [13], 0 of 6.
Take `CC1(C2CCN(Cc3ccccc3)CC2)OCCO1`: under setting [13], the survivor count is 1 of 6.
Take `Cc1cccn(O)c1=NC(=O)c1ccccc1`: the survivor count runs as follows: under setting [7], 3 of 6; under setting [1], 0 of 6; under setting [2], 0 of 6.
`C=CC(C)(C)n1cc(C2=C(O)C(=O)C(c3cn(C(C)(C)C=C)c4ccccc34)=C(O)C2=O)c2ccccc21`: the T/C reads like this: (T/C endpoint: mean survival time, dose: 40.0 mg/kg/injection, schedule: Q01DX009 (ip), vehicle: carboxymethylcellulose (CMC)) 126 % of control; (T/C endpoint: median survival time, dose: 80.0 mg/kg/injection, schedule: Q01DX009 (ip), vehicle: Klucel (hydroxypropylcellulose) (HPC)) 128 and 142 % of control; under setting [14], 125 % of control. In addition, the survivor count under setting [14] was 4 of 6.
Consider `O=C(OCc1ccccc1)c1cc([N+](=O)[O-])c(Cl)c([N+](=O)[O-])c1`, for which the survivor count under setting [2] is recorded as 3 of 6.
In the case of `Cc1cc([N+](=O)[O-])ccc1P(=O)(O)O`, the survivor count reads like this: (T/C endpoint: mean survival time, dose: 100.0 mg/kg/injection, schedule: Q01DX009 (ip), vehicle: saline) 5 of 6; (T/C endpoint: mean survival time, dose: 200.0 mg/kg/injection, schedule: Q01DX009 (ip), vehicle: saline) 2 of 6.
In the case of `Cc1ccc(S(=O)(=O)OCOS(=O)(=O)c2ccc(C)cc2)cc1`, the T/C (T/C endpoint: median survival time, dose: 400.0 mg/kg/injection, schedule: Q01DX009 (ip), vehicle: Klucel (hydroxypropylcellulose) (HPC)) is 132 and 136 % of control.
For the molecule `CNC(=O)Nc1nnnc2ccccc12`, the survivor count was 6 of 6 (T/C endpoint: mean survival time, dose: 200.0 mg/kg/injection, schedule: Q04DX003 (ip), vehicle: saline with Tween-80) and 1 of 6 under setting [6].
In the case of `S=C(NCCCCCNC(=S)Nc1ccccc1)Nc1ccccc1`, the survivor count (T/C endpoint: mean survival time, dose: 400.0 mg/kg/injection, schedule: Q04DX003 (ip), vehicle: acetone) is given as 3 of 6.
As to `CC(C)(CNC1CCCCC1)OC(=O)c1ccc(N)cc1`, the survivor count is listed as 3 of 6 under setting [11]; 0 of 6 (T/C endpoint: mean survival time, dose: 80.0 mg/kg/injection, schedule: Q01DX001 (ip), vehicle: saline); 0 of 6 under setting [12]; 0 of 6 under setting [13].
